Laboratory results from PubChem BioAssay (NCATS).
The shares of active, inactive and inconclusive entries below differ from those in the screen. A potency beside an inconclusive call is a rough fit, not a confirmed value. Active and inactive are the calls of the source. Calls come from the whole dose curve; as a rule, active = well fitted curve in the direction sought with a large enough effect; inconclusive = small, poorly fitted or top-dose-only effect, or another doubt; inactive = no such curve, though single readings can be large; an effect the other way counts as inactive or inconclusive.

Chains of the proteins cited; added tags and fusions are not shown. Lines headed by an entry give the natural chain unless they say otherwise; changes in a name come on top.
UniProt Q8WZA2: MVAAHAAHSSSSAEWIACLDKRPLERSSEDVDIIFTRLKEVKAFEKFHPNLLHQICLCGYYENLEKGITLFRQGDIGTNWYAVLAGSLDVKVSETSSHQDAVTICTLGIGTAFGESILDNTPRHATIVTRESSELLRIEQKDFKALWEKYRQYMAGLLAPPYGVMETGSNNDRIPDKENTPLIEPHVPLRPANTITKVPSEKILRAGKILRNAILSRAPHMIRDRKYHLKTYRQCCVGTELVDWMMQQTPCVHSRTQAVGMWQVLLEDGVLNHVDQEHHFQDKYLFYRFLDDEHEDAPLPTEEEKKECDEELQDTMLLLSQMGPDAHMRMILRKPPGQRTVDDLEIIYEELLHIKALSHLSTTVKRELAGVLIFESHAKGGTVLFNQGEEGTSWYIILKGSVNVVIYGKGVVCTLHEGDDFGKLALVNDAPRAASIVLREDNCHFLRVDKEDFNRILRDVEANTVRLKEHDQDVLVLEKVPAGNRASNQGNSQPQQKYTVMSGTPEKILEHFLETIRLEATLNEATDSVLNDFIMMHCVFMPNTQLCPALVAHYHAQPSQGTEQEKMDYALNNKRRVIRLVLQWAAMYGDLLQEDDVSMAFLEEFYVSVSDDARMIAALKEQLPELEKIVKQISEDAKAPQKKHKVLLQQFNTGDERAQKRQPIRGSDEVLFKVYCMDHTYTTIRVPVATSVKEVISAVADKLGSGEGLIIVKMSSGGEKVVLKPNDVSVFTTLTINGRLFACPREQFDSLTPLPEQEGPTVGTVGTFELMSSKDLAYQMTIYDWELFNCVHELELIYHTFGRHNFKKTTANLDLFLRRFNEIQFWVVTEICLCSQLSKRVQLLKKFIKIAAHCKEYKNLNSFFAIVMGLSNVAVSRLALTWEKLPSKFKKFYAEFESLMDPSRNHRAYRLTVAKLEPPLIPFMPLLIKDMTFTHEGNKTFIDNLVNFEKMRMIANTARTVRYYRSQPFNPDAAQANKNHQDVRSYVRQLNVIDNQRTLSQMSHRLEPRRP

Legend:
[1] = target: Rap guanine nucleotide exchange factor 4 (Homo sapiens) (UniProt Q8WZA2); test: Confirmatory qHTS for antagonist of cAMP-regulated guanine nucleotide exchange factor 4 (EPAC2) (AID 1645885); settings: activity change, negative = inhibition: at 12.7 µM (top of the series) unless noted; note: nearly all actives have a fitted effect of over 25% in size; for activity change, negative = inhibition: % is set by controls: 0 for no effect and ±100 for the full control effect
[2] = target: Rap guanine nucleotide exchange factor 3 (Homo sapiens) (UniProt O95398); test: Counterscreen qHTS for agonist of cAMP-regulated guanine nucleotide exchange factor 3 (EPAC1) (AID 1645889); settings: EPAC1 Rap1B-BODIPY-GDP exchange, fluorescence; activation: at 154 µM (top of the series) unless noted; note: nearly all actives have a fitted effect of over 40% in size; for activation: % of control where 0% means no effect
Summary of the method: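 Rap1B-BODIPY-GDP 250 nM + GDP 50 uM; cpds 7-pt, final 9.74 nM–152 uM (activator mode) or from 7.32 nM upwards (inhibitor mode); RT; FI 480/540 nm at 5 and 30 min, then ± cAMP, reread.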
Potency is the fitted concentration of half-maximal effect.

SMILES | Potency [1] | activation [2] | Potency [2]
CNc1ccc(/C=C(\C#N)C(=O)Nc2ccccn2)cc1[N+](=O)[O-] | inactive | inconclusive: 41.5% [activator] [at 30.8 µM] | –
CC1CN(C(=O)CCC(=O)NCc2ccccc2)c2ccccc2S1 (centres undefined) | inactive | inconclusive: 46.9% [activator] | –
CCCN1C(=O)c2[nH]nc(-c3ccccc3)c2C1c1cccc(O)c1 (centres undefined) | inactive | – | inconclusive: 11.2 µM [activator, full curve]
CCC(=O)N1CCc2cc(OC)c(OC)cc2C1COc1ccc(F)cc1 (centres undefined) | inconclusive: 3.01 µM [inhibitor, partial curve, poor fit] | – | inconclusive: 0.0501 µM [activator, full curve, poor fit]
CCCCN1C(=O)C(C(=O)OCc2ccccc2)CC2=C1CCCC2=O (centres undefined) | inactive | – | inactive
CCN(CC(=O)Nc1ccccc1OC)C(=O)c1ccc(N(C)S(=O)(=O)c2ccc(C)cc2)cc1 | inactive | – | inactive
COC(=O)c1cc2oc(C)cc2n1Cc1ccc(Br)cc1F | inactive | inconclusive: 36.8% [activator] | –
Cc1ccccc1-c1cc2nc(NCCN3CCNC3=O)n(C)c(=O)c2s1 | inconclusive: 95.3 µM [inhibitor, partial curve, poor fit] | – | inactive
CCCCOc1ccc(/C=C/C(=O)OCC(=O)NC(=O)NCC(C)C)cc1OCC | inconclusive: 95.3 µM [inhibitor, single point] | – | inactive
O=C(CN1CCOCC1)Nc1ccccc1Sc1ccc(Cl)cc1 | inactive | – | inconclusive: 44.7 µM [activator, partial curve, poor fit]
Cc1cccc(C)c1-n1nnnc1C(c1ccnc2ccccc12)N(CCC#N)Cc1ccccc1 (centres undefined) | inconclusive: 19 µM [inhibitor, full curve] | inconclusive: 33% [activator] | –
COc1ccc(-c2n[nH]c3c2C(c2ccc(Cl)cc2Cl)NC3=O)cc1 (centres undefined) | inactive | – | inconclusive: 100 µM [activator, single point]
CCOC(=O)C(Cc1ccc(Cl)cc1Cl)c1ccno1 (centres undefined) | inconclusive: 33.8 µM [inhibitor, partial curve] | – | inactive
Cc1cc(=O)n(C2CCS(=O)(=O)C2)[nH]1 (centres undefined) | inactive | – | active: 4.47 µM
O=C(Nc1cccc(Cl)c1N1CCOCC1)c1cccs1 | inconclusive: 42.6 µM [inhibitor, partial curve] | inconclusive: 52% [activator] | –
Cc1ccc(CNc2cc(C)nc3nc(-c4cccc(C)c4)nn23)cc1 | inconclusive: 0.0338 µM [inhibitor, full curve, poor fit] | – | inconclusive: 1 µM [activator, full curve, poor fit]
CCOC(=O)C1=C(C)Nc2nnnn2C1c1ccc(OC)c(Br)c1 (centres undefined) | inactive | inconclusive: 49.6% [activator] [at 30.8 µM] | –
O=C(CN1C(=O)N/C(=C\c2ccccc2OCc2ccc(C(=O)O)cc2)C1=O)Nc1ccc(F)cc1 | inconclusive: 95.3 µM [inhibitor, single point] | – | inactive
CC1(c2ccccc2)CC(C)(C)N2C(=O)Cc3cccc1c32 (centres undefined) | active: 33.8 µM | inconclusive: 34% [activator] | –
Cc1ccc(-c2cc3ccccc3nc2N2CCOCC2)cc1 | inactive | inconclusive: 47.5% [activator] | –
Cc1cccc(C(=O)Nc2ccc3c(c2)ncn3C)c1 | inactive | inconclusive: 29.7% [activator] | –
CC(=O)c1cc(C#N)c(N(C)Cc2ccccc2)nc1C | inconclusive: 3.01 µM [inhibitor, single point] | inactive: 0.131% [at 30.8 µM] | –
Cc1oc2cc([N+](=O)[O-])c(O)c([N+](=O)[O-])c2c1C(=O)c1ccc(Br)cc1 | inconclusive: 9.53 µM [inhibitor, full curve] | inconclusive: 33.1% [activator] | –
COc1ccc(CNC(=S)N/N=C/c2ccc(OC)c(OC)c2)cc1 | active: 67.5 µM | – | inactive
CC(=O)NC(c1ccccc1)c1nc(-c2cccs2)cs1 (centres undefined) | inconclusive: 33.8 µM [inhibitor, full curve] | – | inactive
COC(=O)c1cn(C(=O)c2ccccc2Cl)c2ccccc12 | inconclusive: 3.01 µM [inhibitor, partial curve] | inactive: 20.7% [at 30.8 µM] | –
O=C(O)c1ccc(/C=N/Nc2cccc(C(F)(F)F)c2)cc1 | inconclusive: 84.9 µM [inhibitor, single point] | – | inconclusive: 0.282 µM [activator, full curve, poor fit]

Eight successive entries from above, quoted:
SMILES | Potency [1] | activation [2] | Potency [2]
CCOC(=O)C1=C(C)Nc2nnnn2C1c1ccc(OC)c(Br)c1 (centres undefined) | inactive | inconclusive: 49.6% [activator] [at 30.8 µM] | –
O=C(CN1C(=O)N/C(=C\c2ccccc2OCc2ccc(C(=O)O)cc2)C1=O)Nc1ccc(F)cc1 | inconclusive: 95.3 µM [inhibitor, single point] | – | inactive
CC1(c2ccccc2)CC(C)(C)N2C(=O)Cc3cccc1c32 (centres undefined) | active: 33.8 µM | inconclusive: 34% [activator] | –
Cc1ccc(-c2cc3ccccc3nc2N2CCOCC2)cc1 | inactive | inconclusive: 47.5% [activator] | –
Cc1cccc(C(=O)Nc2ccc3c(c2)ncn3C)c1 | inactive | inconclusive: 29.7% [activator] | –
CC(=O)c1cc(C#N)c(N(C)Cc2ccccc2)nc1C | inconclusive: 3.01 µM [inhibitor, single point] | inactive: 0.131% [at 30.8 µM] | –
Cc1oc2cc([N+](=O)[O-])c(O)c([N+](=O)[O-])c2c1C(=O)c1ccc(Br)cc1 | inconclusive: 9.53 µM [inhibitor, full curve] | inconclusive: 33.1% [activator] | –
COc1ccc(CNC(=S)N/N=C/c2ccc(OC)c(OC)c2)cc1 | active: 67.5 µM | – | inactive
